Experimental data published in the supplement of paper PMC5407854, “Inhibitor of ppGalNAc-T3-mediated O-glycosylation blocks cancer cell invasiveness and lowers FGF23 levels” (eLife, 2017).
The list shows a part of the results. Small differences around the control level are noise.

Tests used:
ppGalNAc-T3 sensor = experiment: T3 sensor activation Q score (MG/GFP ratio z-score vs DMSO controls) (SD units); higher = more sensor activation (inhibition of ppGalNAc-T3 glycosylation); details: HEK293 sensor cells; 10 µM; 6 h
Experimental: (§1)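 Cells were treated with compound at 10 uM for 6 h, then MG/GFP ratio was read by flow cytometry (10,000 cells per well, duplicate wells). Q = (R - R_neg)/SD_neg relative to DMSO vehicle controls; the signal rises when the glycosyltransferase is inhibited.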

ppGalNAc-T2 sensor = experiment: T2 sensor activation Q score (MG/GFP ratio z-score vs DMSO controls) (SD units); higher = more sensor activation (inhibition of ppGalNAc-T2 glycosylation); details: HEK293 sensor cells; 10 µM; 6 h
Experimental: as §1

COc1ccc(Br)cc1CN1CCC(O)CC1
T3 sensor activation Q score (ppGalNAc-T3 sensor): 0.27
T2 sensor activation Q score (ppGalNAc-T2 sensor): 0.22

COc1ccc(-c2csc(Nc3ccc(C(=O)O)cc3)n2)cc1
T3 sensor activation Q score (ppGalNAc-T3 sensor): -0.44
T2 sensor activation Q score (ppGalNAc-T2 sensor): -0.49

CC(=O)N(C)c1ccc(NC(=O)Nc2ccc(Cl)cc2)cc1
T3 sensor activation Q score (ppGalNAc-T3 sensor): 1.23
T2 sensor activation Q score (ppGalNAc-T2 sensor): 0.435

COc1ccc(NC(=O)c2sc3nc(C)cc(C)c3c2N)cc1
T3 sensor activation Q score (ppGalNAc-T3 sensor): 0.145
T2 sensor activation Q score (ppGalNAc-T2 sensor): 0.22

COc1ccccc1CC(CC(=O)O)C(=O)O (stereo unspecified)
T3 sensor activation Q score (ppGalNAc-T3 sensor): 0.525
T2 sensor activation Q score (ppGalNAc-T2 sensor): 0.27

c1ccc(CN2CCN(Cc3cccs3)CC2)cc1
T3 sensor activation Q score (ppGalNAc-T3 sensor): 0.53
T2 sensor activation Q score (ppGalNAc-T2 sensor): 1.35

CN(C)CCC(=O)c1cccs1
T3 sensor activation Q score (ppGalNAc-T3 sensor): -0.46
T2 sensor activation Q score (ppGalNAc-T2 sensor): -0.985

CC(=O)c1c(C)n(C)c2ccc(O)cc12
T3 sensor activation Q score (ppGalNAc-T3 sensor): 0.48
T2 sensor activation Q score (ppGalNAc-T2 sensor): 1.28
